{"sequences": {"note": "The chains behind the UniProt entries cited, without tags or fusion partners.", "UniProt Q0JBA9, entry or part of it": "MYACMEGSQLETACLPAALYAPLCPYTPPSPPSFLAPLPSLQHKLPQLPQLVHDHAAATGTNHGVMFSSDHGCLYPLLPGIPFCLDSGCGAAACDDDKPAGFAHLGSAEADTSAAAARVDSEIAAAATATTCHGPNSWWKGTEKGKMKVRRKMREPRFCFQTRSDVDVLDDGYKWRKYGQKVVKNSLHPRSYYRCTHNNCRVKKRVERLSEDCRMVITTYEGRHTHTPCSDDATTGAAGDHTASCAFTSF"}, "source": "paper PMC7819943", "about": "“Rice protein-binding microarrays: a tool to detect cis-acting elements near promoter regions in rice”", "note": "The list shows a part of the results."}
{"biological_target": "OsWRKY34 (Oryza sativa, UniProt Q0JBA9 1-250)", "assay": "protein-binding microarray (RPBM); PBS, 2% BSA, 51.3 ng/ul salmon testes DNA, 50 uM zinc acetate, 200 nM TF, 25 C, 1 h; high values mean tight binding", "conditions": "protein: recombinant; tags: N-terminal polyhistidine and DsRed monomer fusion (pET32a); label: CyDye5-dUTP incorporated in the synthesized complementary strand; 3' TTTTT single-stranded linker to array surface; dsDNA, one strand shown", "method_in_brief": "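For the binding signal, per-feature fluorescence intensity was read in arbitrary units on an Axon 4000B scanner. Before scanning, a 2% BSA-blocked custom Agilent array made double-stranded with Cy5-dUTP was washed after 1 h at 25 °C with 200 nM protein and 50 µM zinc acetate. The proteins were Ni–NTA-purified transcription factors with N-terminal polyhistidine and DsRed fusions, expressed in E. coli BL21-CodonPlus.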"}
{"sequence": "TGAGGTGAGGGCAGGGGCAGGGGCAGGGCGGACTGGCCAACGGAGTCACCTAGTGCAG", "binding signal": "8680 fluorescence intensity (a.u.)"}
{"sequence": "TCCATCCGGCGAGCGGAGCAGGGGAGGGGAGGGGATCTTGCGGAGTCACCTAGTGCAG", "binding signal": "14300 fluorescence intensity (a.u.)"}
{"sequence": "TTTTGAGGATGTCTCTCTCTTCAAATCTCGTTTTTTTCTTCGGAGTCACCTAGTGCAG", "binding signal": "8620 fluorescence intensity (a.u.)"}
{"sequence": "CACCTTCTCGGGCCATCCTACGCCCCGTCCCGGCGCAAGCCGGAGTCACCTAGTGCAG", "binding signal": "11800 fluorescence intensity (a.u.)"}
{"sequence": "GACGAATGGTCAAACGTTGTTTAAAAAGTCAACGGCGTCACGGAGTCACCTAGTGCAG", "binding signal": "12700 fluorescence intensity (a.u.)"}
{"sequence": "CTCCGATTGGGCAGATGGACTTGTTACCACGGGGAGGAGGCGGAGTCACCTAGTGCAG", "binding signal": "8090 fluorescence intensity (a.u.)"}
{"sequence": "GGACCCCAACCACTATGCCGTAATTTAGCGTGTTTTCCCGCGGAGTCACCTAGTGCAG", "binding signal": "9170 fluorescence intensity (a.u.)"}
{"sequence": "ACAACACATTCATACTAAAGTTACACTGTTCTATATTTTGCGGAGTCACCTAGTGCAG", "binding signal": "8520 fluorescence intensity (a.u.)"}
{"sequence": "TTAAACAACCTAAAAAAAGTCGTCCTTTTTTTTTCTGCAACGGAGTCACCTAGTGCAG", "binding signal": "8120 fluorescence intensity (a.u.)"}
{"sequence": "GGTTCGCTATCCTCGCGCTCTTGTCTCCACCACCCAAAATCGGAGTCACCTAGTGCAG", "binding signal": "9230 fluorescence intensity (a.u.)"}
{"sequence": "GCGATTTGCCCTCTTGCACGCGTCGCCCCGCGCACCGCACCGGAGTCACCTAGTGCAG", "binding signal": "8880 fluorescence intensity (a.u.)"}
{"sequence": "TAATTTTGGTCTGAAGTTTTTTTTTTGTTGTTTTCGTTGTCGGAGTCACCTAGTGCAG", "binding signal": "9160 fluorescence intensity (a.u.)"}
{"sequence": "CGTATTTGTTCCATCTCGTATTCGCTCCGTATCTGTATTCCGGAGTCACCTAGTGCAG", "binding signal": "10600 fluorescence intensity (a.u.)"}
{"sequence": "TATCCCTTCACCAAAACAGAGGAAAAAAGAATCCACTCAACGGAGTCACCTAGTGCAG", "binding signal": "8570 fluorescence intensity (a.u.)"}
{"sequence": "GATATTTTGTTTATTTGTGTTCCTTCTTAAGTCCTTTATTCGGAGTCACCTAGTGCAG", "binding signal": "8440 fluorescence intensity (a.u.)"}
{"sequence": "AGCAGGAGGGGTGGGGCACATACTCGCCATCTTCTTGCACCGGAGTCACCTAGTGCAG", "binding signal": "15900 fluorescence intensity (a.u.)"}
{"sequence": "GGCAACATCTCCATCGTTTTGGCCCATGTACCCGATTACACGGAGTCACCTAGTGCAG", "binding signal": "11200 fluorescence intensity (a.u.)"}
{"sequence": "AGGTAATCCCATTGTTCTAGTTCTTTCAGATTTAATATGTCGGAGTCACCTAGTGCAG", "binding signal": "9690 fluorescence intensity (a.u.)"}
{"sequence": "CTATGATTATGGCTTTGTACCTGTCACGCTGACATCACTCCGGAGTCACCTAGTGCAG", "binding signal": "8100 fluorescence intensity (a.u.)"}
{"sequence": "TTTCTTCTCAACTCGCCTCAGCTGCATCCTCATCTTGGTCCGGAGTCACCTAGTGCAG", "binding signal": "10600 fluorescence intensity (a.u.)"}
{"sequence": "CAATTTTTTTTCGTTGTCACGGTTCGTCTTCCTTAAGTTCCGGAGTCACCTAGTGCAG", "binding signal": "14400 fluorescence intensity (a.u.)"}
{"sequence": "GAAGCCGGCGCCGCTTTCTTCCGCTCCACTCCACCGGCGCCGGAGTCACCTAGTGCAG", "binding signal": "8450 fluorescence intensity (a.u.)"}
{"sequence": "ATTGTGTGGTTTCTCCCTCTCTGGTTCTACCGCTTCTCCTCGGAGTCACCTAGTGCAG", "binding signal": "8160 fluorescence intensity (a.u.)"}
{"sequence": "ACCGGTCTCATCGCTAACCACCAACACCTAATCGTCATTACGGAGTCACCTAGTGCAG", "binding signal": "9800 fluorescence intensity (a.u.)"}
{"sequence": "CGAGCCGTTCTGATCCTTCGCCATGCCCTACCTGCCGCGCCGGAGTCACCTAGTGCAG", "binding signal": "8350 fluorescence intensity (a.u.)"}
{"sequence": "GTGGTAGGGGTGGAGATAAAGTTGGACTCTGTAACCCGGCCGGAGTCACCTAGTGCAG", "binding signal": "11300 fluorescence intensity (a.u.)"}
{"sequence": "CTTTCTATTCATGCCGCCATTGCTATATGTTGCTTATTTACGGAGTCACCTAGTGCAG", "binding signal": "10100 fluorescence intensity (a.u.)"}
{"sequence": "ATGTCGGCGGCGGGCGGCGGCGGCGGCGTGGGGAAGGTGGCGGAGTCACCTAGTGCAG", "binding signal": "9040 fluorescence intensity (a.u.)"}
{"sequence": "CGACCACCTCGCCGCGCTCGACCATCTCCGCCGGCAGCACCGGAGTCACCTAGTGCAG", "binding signal": "10700 fluorescence intensity (a.u.)"}
{"sequence": "GCCACTGATCCGTCCCAAAGCCTTCAAATTACTCAAATCCCGGAGTCACCTAGTGCAG", "binding signal": "8760 fluorescence intensity (a.u.)"}
{"sequence": "TATTAATACTATCTCTTTGACTTTTTGGGTGCATAATATACGGAGTCACCTAGTGCAG", "binding signal": "13000 fluorescence intensity (a.u.)"}
{"sequence": "ATCGTGACTTTCTTAGACTAGTAAGTAATGCTTTCCTGCCCGGAGTCACCTAGTGCAG", "binding signal": "8970 fluorescence intensity (a.u.)"}
{"sequence": "GTTGGCCTAATCCTACCAAATCTTTTGAAATTTCTACGTTCGGAGTCACCTAGTGCAG", "binding signal": "8890 fluorescence intensity (a.u.)"}
{"sequence": "CCGGTGATGTTTTTATTTTTCTTCCGGTTCTTTTTCTCAACGGAGTCACCTAGTGCAG", "binding signal": "12300 fluorescence intensity (a.u.)"}
{"sequence": "GGTACGGGCTCCGCGCCGACGTGCGGAGCGTCAACCTGTCCGGAGTCACCTAGTGCAG", "binding signal": "9260 fluorescence intensity (a.u.)"}
{"sequence": "GAATCCATCGACACGTTTCTTTCGTCAGAACAGTGTCCGTCGGAGTCACCTAGTGCAG", "binding signal": "8430 fluorescence intensity (a.u.)"}
{"sequence": "CCTCTCGATGGATATAAATACGCCTCTAGCTCTAACTTTTCGGAGTCACCTAGTGCAG", "binding signal": "8350 fluorescence intensity (a.u.)"}
{"sequence": "GAGCTCCACCTCCTCGCGTGCCCACGCCATCCATGGCTTCCGGAGTCACCTAGTGCAG", "binding signal": "8080 fluorescence intensity (a.u.)"}
{"sequence": "GGAGAGGAGCGGGCGGGTTGGTGTTGGGAAGGGAGGGATGCGGAGTCACCTAGTGCAG", "binding signal": "18200 fluorescence intensity (a.u.)"}
{"sequence": "AGTATCAAGCGATACAGGAGCTCCTCACTCCATCTCTCTACGGAGTCACCTAGTGCAG", "binding signal": "8330 fluorescence intensity (a.u.)"}
{"sequence": "TGTAGTTTGTTGCTTTCTGGATATTTACTACTCCCTCCATCGGAGTCACCTAGTGCAG", "binding signal": "8220 fluorescence intensity (a.u.)"}
{"sequence": "CCTACCTACAATTTGCCCATGCTACTGTTACACTGTTCCCCGGAGTCACCTAGTGCAG", "binding signal": "10400 fluorescence intensity (a.u.)"}
